Source: ChEMBL document CHEMBL3988442, “University of Dundee, Small-Polar-MMV Screening Library” (2021).

By UniProt entry, the sequences of proteins in these tests, tags left out. Residues count along the entry.
UniProt I6X8D2, whole entry: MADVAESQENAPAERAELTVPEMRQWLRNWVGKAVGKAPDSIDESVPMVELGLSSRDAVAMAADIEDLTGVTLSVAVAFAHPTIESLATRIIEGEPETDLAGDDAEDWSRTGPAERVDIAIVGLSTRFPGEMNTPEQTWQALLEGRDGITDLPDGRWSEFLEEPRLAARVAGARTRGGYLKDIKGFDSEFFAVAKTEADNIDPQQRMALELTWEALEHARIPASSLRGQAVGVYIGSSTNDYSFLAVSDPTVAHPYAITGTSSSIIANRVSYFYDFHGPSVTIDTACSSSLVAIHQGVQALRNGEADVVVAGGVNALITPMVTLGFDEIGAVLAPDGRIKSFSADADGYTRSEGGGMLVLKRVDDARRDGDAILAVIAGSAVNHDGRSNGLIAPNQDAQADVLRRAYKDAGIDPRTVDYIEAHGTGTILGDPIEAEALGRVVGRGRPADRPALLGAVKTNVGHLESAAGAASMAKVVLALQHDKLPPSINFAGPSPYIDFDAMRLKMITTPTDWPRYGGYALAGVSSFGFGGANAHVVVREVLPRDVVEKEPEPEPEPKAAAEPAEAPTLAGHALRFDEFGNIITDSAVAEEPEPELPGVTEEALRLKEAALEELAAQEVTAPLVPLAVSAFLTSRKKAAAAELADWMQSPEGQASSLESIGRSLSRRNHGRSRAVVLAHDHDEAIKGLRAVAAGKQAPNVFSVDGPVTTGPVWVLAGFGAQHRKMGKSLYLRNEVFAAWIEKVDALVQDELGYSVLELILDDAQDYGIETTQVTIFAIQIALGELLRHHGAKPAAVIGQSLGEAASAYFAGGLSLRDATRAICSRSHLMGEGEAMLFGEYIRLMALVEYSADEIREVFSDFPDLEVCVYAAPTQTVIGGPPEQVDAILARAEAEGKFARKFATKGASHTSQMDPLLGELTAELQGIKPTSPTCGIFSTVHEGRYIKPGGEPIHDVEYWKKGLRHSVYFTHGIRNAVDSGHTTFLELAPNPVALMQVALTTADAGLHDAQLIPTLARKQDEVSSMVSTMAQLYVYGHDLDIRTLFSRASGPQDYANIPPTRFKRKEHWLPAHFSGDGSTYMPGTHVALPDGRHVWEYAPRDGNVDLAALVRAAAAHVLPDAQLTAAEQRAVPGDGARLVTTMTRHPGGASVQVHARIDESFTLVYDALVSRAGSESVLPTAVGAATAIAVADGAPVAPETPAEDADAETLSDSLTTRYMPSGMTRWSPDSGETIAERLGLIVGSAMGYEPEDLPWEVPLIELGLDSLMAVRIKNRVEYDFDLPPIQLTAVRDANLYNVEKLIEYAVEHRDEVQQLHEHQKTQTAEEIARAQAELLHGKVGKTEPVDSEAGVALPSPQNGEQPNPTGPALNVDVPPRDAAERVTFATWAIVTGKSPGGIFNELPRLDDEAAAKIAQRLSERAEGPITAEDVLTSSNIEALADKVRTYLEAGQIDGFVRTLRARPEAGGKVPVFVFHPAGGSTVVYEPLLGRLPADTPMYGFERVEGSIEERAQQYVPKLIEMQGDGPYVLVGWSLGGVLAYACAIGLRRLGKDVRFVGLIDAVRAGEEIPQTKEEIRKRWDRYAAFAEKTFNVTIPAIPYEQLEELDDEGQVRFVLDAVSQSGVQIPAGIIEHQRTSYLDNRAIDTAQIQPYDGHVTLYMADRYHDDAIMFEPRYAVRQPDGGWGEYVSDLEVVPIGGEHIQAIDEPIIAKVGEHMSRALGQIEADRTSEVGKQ
UniProt P9WFT3, whole entry: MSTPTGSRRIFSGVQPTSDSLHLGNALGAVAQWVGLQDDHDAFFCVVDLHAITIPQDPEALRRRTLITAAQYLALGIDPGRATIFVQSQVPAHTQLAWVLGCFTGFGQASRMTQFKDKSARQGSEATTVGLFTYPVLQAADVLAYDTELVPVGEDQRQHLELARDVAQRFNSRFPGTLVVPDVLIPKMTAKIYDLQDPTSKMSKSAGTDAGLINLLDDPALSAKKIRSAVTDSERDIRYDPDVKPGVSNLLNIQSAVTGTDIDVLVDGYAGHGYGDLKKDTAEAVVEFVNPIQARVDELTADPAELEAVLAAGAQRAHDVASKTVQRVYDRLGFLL
UniProt P9WNZ1, whole entry: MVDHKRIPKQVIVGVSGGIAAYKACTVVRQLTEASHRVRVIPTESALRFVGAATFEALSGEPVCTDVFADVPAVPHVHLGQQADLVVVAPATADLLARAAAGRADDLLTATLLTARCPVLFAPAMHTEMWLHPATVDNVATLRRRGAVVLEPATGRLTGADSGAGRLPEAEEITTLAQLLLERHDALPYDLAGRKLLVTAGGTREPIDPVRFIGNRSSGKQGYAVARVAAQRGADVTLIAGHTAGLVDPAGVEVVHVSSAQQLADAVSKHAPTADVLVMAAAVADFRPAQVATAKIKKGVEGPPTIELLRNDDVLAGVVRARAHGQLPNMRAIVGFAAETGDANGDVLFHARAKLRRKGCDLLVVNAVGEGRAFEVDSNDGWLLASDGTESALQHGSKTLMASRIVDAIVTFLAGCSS
UniProt Q8IDJ8, 1-583: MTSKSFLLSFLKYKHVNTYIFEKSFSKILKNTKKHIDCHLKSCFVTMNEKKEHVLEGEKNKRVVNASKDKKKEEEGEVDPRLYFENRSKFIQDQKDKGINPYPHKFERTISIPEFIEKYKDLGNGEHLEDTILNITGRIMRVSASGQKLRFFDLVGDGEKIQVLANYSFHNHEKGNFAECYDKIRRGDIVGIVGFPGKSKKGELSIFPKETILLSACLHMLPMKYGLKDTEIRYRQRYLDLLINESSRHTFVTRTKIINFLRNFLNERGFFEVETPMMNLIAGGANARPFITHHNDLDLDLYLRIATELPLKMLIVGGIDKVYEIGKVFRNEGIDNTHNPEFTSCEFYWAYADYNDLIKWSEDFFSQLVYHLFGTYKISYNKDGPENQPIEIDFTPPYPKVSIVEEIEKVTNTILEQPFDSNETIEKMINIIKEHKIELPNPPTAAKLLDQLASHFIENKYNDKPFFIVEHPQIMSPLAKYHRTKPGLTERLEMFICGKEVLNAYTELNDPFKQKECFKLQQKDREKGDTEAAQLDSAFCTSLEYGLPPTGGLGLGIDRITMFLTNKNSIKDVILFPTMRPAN

The filed quantity is “Percent Effect” (%). The record does not define 0% and 100%; most values in the screen are far below 50% and negative numbers occur (in some assays of this library far below -100). Compounds were drawn at random from those tested, without regard to their results.

Pks13 thioesterase: 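Enzyme assay of the thioesterase domain of polyketide synthase 13; the read-out is not stated. Target: Polyketide synthase Pks13, Mycobacterium tuberculosis (UniProt I6X8D2). Compounds at 30 µM. The record gives no direction; the compounds picked for IC50 retests had high values, so higher reads as stronger inhibition. About 67,000 compounds were tested under these conditions; 0.46% (about 300) showed 50% or more at least once.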
MtTrpRS: 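Tryptophan-tRNA ligase, Mycobacterium tuberculosis (UniProt P9WFT3). Enzyme assay of tryptophanyl-tRNA synthetase; the read-out is not stated. Tested at 10 µM. Direction is not recorded; retested compounds ran higher, which suggests that high means inhibition. Of about 65,000 compounds tested this way, about 64 (0.098%) reached 50% or more in at least one test.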
CoaBC: 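Enzyme assay of CoaBC with a phosphate dye (Biomol Green) read at 650 nm. Target: Coenzyme A biosynthesis protein CoaBC, Mycobacterium tuberculosis (UniProt P9WNZ1). Concentration: 30 µM. Higher reads as stronger inhibition, judged from the few compounds that gave an IC50. Most strong results did not repeat in a second test. Size under these conditions: about 67,000 compounds, about 40 of them at 50% or above in at least one test.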
PfKRS1: 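Enzyme assay of the cytosolic lysyl-tRNA synthetase in 384-well plates, read by luminescence. Target: Lysine-tRNA ligase, Plasmodium falciparum 3D7 (UniProt Q8IDJ8). Tested at 30 µM. Higher reads as stronger inhibition, judged from the few compounds that gave an IC50. Of about 69,000 compounds tested this way, about 49 (0.071%) reached 50% or more in at least one test.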

For CCc1nnc(Nc2cccc(C3CCN(c4cnccn4)CC3)n2)s1 the result was Pks13 thioesterase: -37.18%; CoaBC: 1.115%; PfKRS1: -0.5248%.
For COc1ccc(CN2CCc3[nH]nc(C(=O)N(C)C)c3C2)cc1 the result was Pks13 thioesterase: -23.7%; MtTrpRS: -3.779%; CoaBC: 2.188%; PfKRS1: 4.783%.
For O=C(O)CC[C@@H]1CN(c2ncccc2F)CC[C@@H]1N1CCOCC1 the result was Pks13 thioesterase: -6.56%; MtTrpRS: -1.027%; CoaBC: -0.9615%; PfKRS1: -0.4038%.
For OCCN1CCC(CNCc2cn(-c3ccccc3)nn2)CC1 the result was Pks13 thioesterase: -11.23%; MtTrpRS: -2.16%; CoaBC: -36.11%; PfKRS1: 1.941%.
For CCn1c(C)nnc1SCCNC(=O)CC1CCc2ccccc21 (stereo not drawn) the result was Pks13 thioesterase: -13.31%; MtTrpRS: -0.6552%; CoaBC: 8.238%; PfKRS1: 2.641%.
For Cc1nnc(CCNC(=O)C(c2ccc(F)cc2)N(C)C)[nH]1 (stereo not drawn) the result was Pks13 thioesterase: -20.92%; MtTrpRS: 5.522%; CoaBC: 5.939%; PfKRS1: 2.526%.
For CCOC(=O)NCc1nn(CCN2CCCC2)c(=O)c2ccccc12 the result was Pks13 thioesterase: 24.53%; MtTrpRS: -0.06325%; CoaBC: -1.453%; PfKRS1: -1.554%.
For CCOCCCC(=O)NCCC(=O)N1CCN(c2ccccn2)CC1 the result was Pks13 thioesterase: -16.07%; MtTrpRS: 0.7415%; CoaBC: 3.914%; PfKRS1: 9.344%.
For Cc1ccsc1-c1nccn1CCS(=O)(=O)N1CCCC1 the result was Pks13 thioesterase: 7.321%; MtTrpRS: 14.75%; CoaBC: 11.76%; PfKRS1: -4.237%.
For COCc1ncc(CN2CC(Oc3c(C)cccc3C)C2)cn1 the result was Pks13 thioesterase: -12.38%; MtTrpRS: 2.938%; CoaBC: 5.925%; PfKRS1: 3.647%.
For COc1cccc(C(=O)N(C)C(C)c2c(C)n[nH]c2C)c1OC (stereo not drawn) the result was Pks13 thioesterase: 8.328%; MtTrpRS: -5.197%; CoaBC: -1.79%; PfKRS1: 1.877%.
For NC(=O)N1CCCN(CC(=O)NCCc2c(F)cccc2F)CC1 the result was Pks13 thioesterase: -17.62%; MtTrpRS: -1.312%; CoaBC: 11.06%; PfKRS1: 4.989%.
For CC(=O)N1C[C@H]2CNC[C@@]2(C(=O)NCCOc2ccccc2F)C1 the result was Pks13 thioesterase: -28.02%; MtTrpRS: -1.89%; CoaBC: -5.371%; PfKRS1: 10.18%.
For OCc1ccc(CNc2ccccc2CN2CCC(O)CC2)o1 the result was Pks13 thioesterase: -41.11%; MtTrpRS: -1.135%; PfKRS1: 2.904%.
For Cc1occc1C(=O)NCc1ccc(N2CCCC(C(N)=O)C2)cc1 (stereo not drawn) the result was Pks13 thioesterase: -3.284%; MtTrpRS: 2.618%; CoaBC: 3.259%; PfKRS1: -0.08374%.
For O=C(Nc1ccc(-c2ccco2)cc1)C1CCCN(Cc2ccon2)C1 (stereo not drawn) the result was Pks13 thioesterase: -43.42%; MtTrpRS: 5.569%; CoaBC: 6.865%; PfKRS1: 1.221%.
For Cc1noc(C)c1-c1cncc(C2CCCN2Cc2cn(C)cn2)n1 (stereo not drawn) the result was Pks13 thioesterase: 1.459%; CoaBC: 0.6196%; PfKRS1: 0.2054%.
For CCNC(c1ccc(C)cc1)c1cccnc1 (stereo not drawn) the result was Pks13 thioesterase: -1.621%; MtTrpRS: -4.496%; CoaBC: -7.826%; PfKRS1: 0.4959%.
For CCCn1cc(C(=O)NC(C)c2c(C)nn(CC)c2C)c(C)n1 (stereo not drawn) the result was Pks13 thioesterase: -29.1%; MtTrpRS: -2.193%; CoaBC: 0.4938%; PfKRS1: 2.072%.
For Cc1oc(C(=O)O)cc1S(=O)(=O)Nc1ccc(Cl)c(F)c1 the result was Pks13 thioesterase: -0.1026%; MtTrpRS: 3.118%; CoaBC: -7.229%; PfKRS1: 0.8695%.

Some entries from above, unchanged:

CCn1c(C)nnc1SCCNC(=O)CC1CCc2ccccc21 (stereo not drawn) read Pks13 thioesterase: -13.31%; MtTrpRS: -0.6552%; CoaBC: 8.238%; PfKRS1: 2.641%.
Cc1occc1C(=O)NCc1ccc(N2CCCC(C(N)=O)C2)cc1 (stereo not drawn) read Pks13 thioesterase: -3.284%; MtTrpRS: 2.618%; CoaBC: 3.259%; PfKRS1: -0.08374%.